Test results as given in patent US20150031572A1, “MEANS AND METHODS FOR ASSESSING NEURONAL TOXICITY” (priority 2012, published 2015).

Test: Plasma metabolite profiling (GC-MS, LC-MS, SPE-LC-MS) of rats dosed once daily over 28 days; treatment ratios versus untreated control
Format: in vivo, rat
Conditions: male rats, high dose
Method: A group of each 5 male and female rats was dosed once daily with the indicated compounds (see Table 10, below for compounds, applied doses and administration details) over 28 days.
Each dose group in the studies consisted of five rats per sex. Additional groups of each 5 male and female animals served as controls. Before starting the treatment period, animals, which were 62-64 days old when supplied, were acclimatized to the housing and environmental conditions for 7 days. All animals of the animal population were kept under the same constant temperature (20-24±3° C.) and the same constant humidity (30-70%). The animals of the animal population were fed ad libitum. The food to be used was essentially free of chemical or microbial contaminants. Drinking water was also offered ad libitum. Accordingly, the water was free of chemical and microbial contaminants as laid down in the European Drinking Water Directive 98/83/EG. The illumination period was 12 hours light followed by 12 hours darkness (12 hours light, from 6:00 to 18:00, and 12 hours darkness, from 18:00 to 6:00). […] The test substances (compounds) in the Tables 1 to 9 below were dosed and administered as described in the Table 10 above.
In the morning of day 7, 14, and 28, blood was taken from the retro-orbital venous plexus from fasted anaesthetized animals. From each animal, 1 ml of blood was collected with EDTA as anticoagulant. The samples were centrifuged for generation of plasma. All plasma samples were covered with a N2 atmosphere and then stored at −80° C. until analysis.
For mass spectrometry-based metabolite profiling analyses plasma samples were extracted and a polar and a non-polar (lipid) fraction was obtained. For GC-MS analysis, the non-polar fraction was treated with methanol under acidic conditions to yield the fatty acid methyl esters. Both fractions were further derivatised with O-methyl-hydroxyamine hydrochloride and pyridine to convert Oxogroups to O-methyloximes and subsequently with a silylating agent before analysis. In LC-MS analysis, both fractions were reconstituted in appropriate solvent mixtures. HPLC was performed by gradient elution on reversed phase separation columns. Mass spectrometric detection which allows target and high sensitivity MRM (Multiple Reaction Monitoring) profiling in parallel to a full screen analysis was applied as described in WO2003073464.
Steroids and their metabolites were measured by online SPE-LC-MS (Solid phase extraction-LC-MS).
Following comprehensive analytical validation steps, the data for each analyte were normalized against data from pool samples. These samples were run in parallel through the whole process to account for process variability. The significance of treatment group values specific for sex, treatment duration and metabolite was determined by comparing means of the treated groups to the means of the respective untreated control groups using WELCH-test and quantified with treatment ratios versus control and p-values.
The identification of the most important biomarkers per toxicity pattern was done by a ranking of the analytes in the tables below. Therefore the metabolic changes in reference treatments of a given pattern (shown in the table) were compared with changes of the same metabolite in other unrelated treatments. […] The maximum absolute value of the respective TVALUE was taken to indicate the most important metabolite for the pattern.

Cc1cnc(C(=O)NCCc2ccc(S(=O)(=O)NC(=O)NC3CCCCC3)cc2)cn1 [Glipizide]
5-Oxoproline, plasma metabolite ratio versus control (day 7 (m7)): 0.74 | Alanine, plasma metabolite ratio versus control (day 7 (m7)): 0.62 | Arginine (second line of the table), plasma metabolite ratio versus control (day 7 (m7)): 0.80 | Arginine, plasma metabolite ratio versus control (day 7 (m7)): 0.79 | Citrulline, plasma metabolite ratio versus control (day 7 (m7)): 0.92 | Glutamine, plasma metabolite ratio versus control (day 7 (m7)): 0.79 | Proline, plasma metabolite ratio versus control (day 7 (m7)): 0.82 | Tyrosine, plasma metabolite ratio versus control (day 7 (m7)): 0.77 | 5-Oxoproline, plasma metabolite ratio versus control (day 14 (m14)): 0.81 | Alanine, plasma metabolite ratio versus control (day 14 (m14)): 0.68 | Arginine (second line of the table), plasma metabolite ratio versus control (day 14 (m14)): 0.86 | Arginine, plasma metabolite ratio versus control (day 14 (m14)): 0.93 | Citrulline, plasma metabolite ratio versus control (day 14 (m14)): 0.85 | Glutamine, plasma metabolite ratio versus control (day 14 (m14)): 0.63 | Proline, plasma metabolite ratio versus control (day 14 (m14)): 0.87 | Tyrosine, plasma metabolite ratio versus control (day 14 (m14)): 0.88 | 5-Oxoproline, plasma metabolite ratio versus control (day 28 (m28)): 0.78 | Alanine, plasma metabolite ratio versus control (day 28 (m28)): 0.89 | Arginine (second line of the table), plasma metabolite ratio versus control (day 28 (m28)): 0.88 | Arginine, plasma metabolite ratio versus control (day 28 (m28)): 0.88 | Citrulline, plasma metabolite ratio versus control (day 28 (m28)): 0.96 | Glutamine, plasma metabolite ratio versus control (day 28 (m28)): 0.85 | Proline, plasma metabolite ratio versus control (day 28 (m28)): 0.90 | Tyrosine, plasma metabolite ratio versus control (day 28 (m28)): 0.85
